From PMC9606269, “Biased signaling due to oligomerization of the G protein-coupled platelet-activating factor receptor” (Nature Communications, 2022) come the findings set out here.

Sequences of proteins named here, by UniProt entry; tags and fusion partners are left off.
UniProt P25098: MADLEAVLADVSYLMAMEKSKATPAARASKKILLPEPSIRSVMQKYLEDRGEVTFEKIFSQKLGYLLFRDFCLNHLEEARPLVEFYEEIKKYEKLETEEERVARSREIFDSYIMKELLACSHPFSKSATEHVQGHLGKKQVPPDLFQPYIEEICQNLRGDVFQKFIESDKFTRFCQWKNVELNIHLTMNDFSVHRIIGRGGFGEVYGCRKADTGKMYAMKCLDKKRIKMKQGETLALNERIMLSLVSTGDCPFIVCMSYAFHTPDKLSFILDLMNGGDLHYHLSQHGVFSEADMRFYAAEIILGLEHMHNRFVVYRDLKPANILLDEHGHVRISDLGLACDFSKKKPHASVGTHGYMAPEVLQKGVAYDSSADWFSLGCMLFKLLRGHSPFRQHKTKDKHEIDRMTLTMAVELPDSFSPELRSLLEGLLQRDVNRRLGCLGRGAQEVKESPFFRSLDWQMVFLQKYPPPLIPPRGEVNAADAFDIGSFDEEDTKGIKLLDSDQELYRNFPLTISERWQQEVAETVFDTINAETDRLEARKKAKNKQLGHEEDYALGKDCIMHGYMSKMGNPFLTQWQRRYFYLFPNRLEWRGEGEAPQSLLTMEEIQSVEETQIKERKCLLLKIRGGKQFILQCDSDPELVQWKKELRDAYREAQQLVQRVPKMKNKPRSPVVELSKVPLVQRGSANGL
UniProt P35626: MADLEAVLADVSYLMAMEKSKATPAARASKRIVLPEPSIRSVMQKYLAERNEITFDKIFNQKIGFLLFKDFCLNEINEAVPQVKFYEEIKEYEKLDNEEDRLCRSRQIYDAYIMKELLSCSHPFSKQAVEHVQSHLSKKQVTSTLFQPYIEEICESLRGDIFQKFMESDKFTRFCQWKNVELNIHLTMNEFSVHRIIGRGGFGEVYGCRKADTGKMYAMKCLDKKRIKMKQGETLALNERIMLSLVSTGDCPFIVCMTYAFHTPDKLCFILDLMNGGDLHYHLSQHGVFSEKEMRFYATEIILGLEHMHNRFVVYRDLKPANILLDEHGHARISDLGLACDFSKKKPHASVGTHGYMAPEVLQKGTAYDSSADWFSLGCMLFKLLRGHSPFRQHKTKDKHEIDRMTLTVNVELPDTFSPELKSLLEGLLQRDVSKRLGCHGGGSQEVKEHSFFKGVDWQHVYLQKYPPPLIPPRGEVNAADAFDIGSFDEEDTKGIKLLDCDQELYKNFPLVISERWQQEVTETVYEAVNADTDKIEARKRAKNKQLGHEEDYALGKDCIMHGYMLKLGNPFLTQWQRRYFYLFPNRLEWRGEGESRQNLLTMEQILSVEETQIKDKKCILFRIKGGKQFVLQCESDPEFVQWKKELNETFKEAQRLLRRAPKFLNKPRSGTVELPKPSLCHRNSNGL

Results are given in words; binding and its absence hold for the method and conditions named. For part of these data: In cells and extracts the contact can be indirect. Some results given as binding are weak or reduced against the parent protein; the word gives no strength.

The target of test [1] is Halo-PAFR E178K (natural genetic variant) (human) (UniProt P25105). Kind of test: single-molecule photobleaching step analysis (TIRF microscopy); Halo-PAFR WT against the mutant Y151C-I154C or the variant E178K; density not told.
The target of test [2] is Halo-PAFR E178K together with I186C^5.38 (human) (UniProt P25105). Kind of test: cross-linking; Cys cross-linking without CuP treatment; cell surface Halo-PAFR labelled with Halo-660; nonreducing SDS-PAGE.
Test [3] deals with Halo-PAFR G147C^4.55 (human) (UniProt P25105). The test is described as follows: cross-linking; Cys cross-linking with CuP (1.5 mM Cu(II)-(o-phenanthroline), pH 8.0, 20 °C, 30 min) on living HEK-293 cells (parental or Δβarr1/2, with or without βarr1); cell surface Halo-PAFR labelled with Halo-660; nonreducing SDS-PAGE.
For test [4], the target named is Halo-PAFR I20C^1.37 (human) (UniProt P25105). Described as above.
Test [5] deals with Halo-PAFR I20C^1.37-G147C^4.55 (human) (UniProt P25105). The description is as above.
The target in test [6] is Halo-PAFR I20C^1.37-I154C^4.62 (human) (UniProt P25105). The description is as above.
Test [7] concerns the target Halo-PAFR I20C^1.37-I186C^5.38 (human) (UniProt P25105). Described as above.
Test [8] has as its target Halo-PAFR I20C^1.37-L155C^4.63 (human) (UniProt P25105). The test is described as above.
The target of test [9] is Halo-PAFR I20C^1.37-Y151C^4.59 (human) (UniProt P25105). Described as above.
In test [10] the target is Halo-PAFR I154C^4.62 (human) (UniProt P25105). Described as above.
Test [11] deals with Halo-PAFR I186C^5.38 (human) (UniProt P25105). The description is as above.
In test [12] the target is Halo-PAFR L155C^4.63 (human) (UniProt P25105). Described as above.
Test [13] has as its target Halo-PAFR Y151C^4.59 (human) (UniProt P25105). Described as above.
For test [14], the target named is PAFR-Venus E178K variant (human) (UniProt P25105). The test is described as follows: FRET or BRET; BRET between GRK2-Rluc or GRK3-Rluc and PAFR-Venus co-transfected in cells, stimulation with PAF (1 μM).
Test [15] concerns the target PAFR-Venus Y151C^4.59-I154C^4.62 (human) (UniProt P25105). The description is as above.
The target of test [16] is Wild-type human PAFR fused at its C terminus to Venus (PAFR-Venus) or to Renilla luciferase 8 (PAFR-Rluc) (human) (UniProt P25105). Described as above.
Test [17] concerns the target SNAP-tagged PAFR WT (human) (UniProt P25105). Kind of test: FRET or BRET; TR-FRET between N-terminal SNAP-tags labelled with SNAP-Lumi4-Tb (100 nM) and SNAP-green (300 nM) at the surface of HEK-293 cells (βarr siRNA, or Δβarr1/2 cells with βarr1 plasmid).
The target in test [18] is Wild-type human PAFR fused at its C terminus to Venus (PAFR-Venus) or to Renilla luciferase 8 (PAFR-Rluc) (human) (UniProt P25105). The test is described as follows: FRET or BRET; competition BRET: PAFR-Rluc and PAFR-Venus with different amounts of co-expressed untagged receptors. On the technique in general: BRET reads energy transfer from a luciferase to a nearby fluorophore.

The target is the same in test [19]. Kind of test: FRET or BRET; BRET between PAFR-Rluc and PAFR-Venus in cells of the TM peptide experiment (control: pure DMSO).
The target is the same in test [20]. Kind of test: FRET or BRET; BRET saturation: increasing amounts of Venus-tagged receptors with constant amounts of Rluc-tagged receptors in HEK293 cells, coelenterazine h 5 μM.
The target is the same in test [21]. Kind of test: FRET or BRET; BRET between βarr1-Rluc and PAFR-Venus co-transfected in cells, stimulation with PAF (1 μM).
Test [22] has the same target. Kind of test: FRET or BRET; BRET between PAFR-Rluc and PAFR-Venus in cells after 10 μM synthetic TM peptide, 37 °C, 2 h; peptide against receptor; only the binder purified.

For “Halo-PAFR E178K (natural genetic variant) (from UniProt P25105 1-342) (receptor)”, in [1], the binding result is “binds”.

As for “Halo-PAFR E178K together with I186C^5.38 (from UniProt P25105 1-342) (receptor)”, the binding result in test [2] was “binds”.

As for “Halo-PAFR G147C^4.55 (from UniProt P25105 1-342) (receptor)”, the binding result in [3] is “binds”.

In the case of “Halo-PAFR I20C^1.37 (from UniProt P25105 1-342) (receptor)”, the binding entry in test [4] was “binds”. In the case of “Halo-PAFR I20C^1.37-G147C^4.55 (from UniProt P25105 1-342) (receptor)”, the binding entry in [5] is “binds”. Turning to “Halo-PAFR I20C^1.37-I154C^4.62 (from UniProt P25105 1-342) (receptor)”, the binding result in test [6] is on record as “binds”.

As to “Halo-PAFR I20C^1.37-I186C^5.38 (from UniProt P25105 1-342) (receptor)”, the binding result in [7] was “binds”.

Turning to “Halo-PAFR I20C^1.37-L155C^4.63 (from UniProt P25105 1-342) (receptor)”, the binding result in test [8] was “binds”.

With “Halo-PAFR I20C^1.37-Y151C^4.59 (from UniProt P25105 1-342) (receptor)”, the binding entry in test [9] is “binds”.

Turning to “Halo-PAFR I154C^4.62 (from UniProt P25105 1-342) (receptor)”, the binding result in test [10] is listed as “binds”. With “Halo-PAFR I186C^5.38 (from UniProt P25105 1-342) (receptor)”, the binding entry in test [11] is listed as “binds”. Take “Halo-PAFR L155C^4.63 (from UniProt P25105 1-342) (receptor)”: in [12], the binding result is “binds”. As for “Halo-PAFR Y151C^4.59 (from UniProt P25105 1-342) (receptor)”, in test [13], the binding entry is “binds”. Take “Human GRK2 fused to Renilla luciferase (from UniProt P25098 1-689) (enzyme)”: the binding result in test [14], in [15] and in test [16] was “binds” in each case. Consider “Human GRK3 fused to Renilla luciferase (from UniProt P35626 1-688) (enzyme)”, for which the binding result in test [14], in test [15] and in test [16] was “binds” throughout.

As for “SNAP-tagged PAFR WT (from UniProt P25105 1-342) (receptor)”, in [17], the binding result is on record as “binds”. As to “Untagged PAFR (without Rluc or Venus tags) (from UniProt P25105 1-342) (receptor)”, in test [18], the binding result is on record as “binds”. With “Wild-type human PAFR fused at its C terminus to Venus (PAFR-Venus) or to Renilla luciferase 8 (PAFR-Rluc) (from UniProt P25105 1-342) (receptor)”, the binding entry in test [19], in test [18] and in [20] was “binds” throughout. On to “βarr1-3D mutant (L335D, L338D, S340D) tagged with Rluc (from UniProt P49407 1-418)”, for which, in test [21], the binding result is recorded as “no binding”.

B1: Human β-arrestin1 tagged with Rluc (natural protein, UniProt P49407 1-418, looked up)
chain: MGDKGTRVFKKASPNGKLTVYLGKRDFVDHIDLVDPVDGVVLVDPEYLKERRVYVTLTCAFRYGREDLDVLGLTFRKDLFVANVQSFPPAPEDKKPLTRLQERLIKKLGEHAYPFTFEIPPNLPCSVTLQPGPEDTGKACGVDYEVKAFCAENLEEKIHKRNSVRLVIRKVQYAPERPGPQPTAETTRQFLMSDKPLHLEASLDKEIYYHGEPISVNVHVTNNTNKTVKKIKISVRQYADICLFNTAQYKCPVAMEEADDTVAPSSTFCKVYTLTPFLANNREKRGLALDGKLKHEDTNLASSTLLREGANREILGIIVSYKVKVKLVVSRGGLLGDLASSDVAVELPFTLMHPKPKEEPPHREVPENETPVDTNLIELDTNDDDIVFEDFARQRLKGMKDDKEEEEDGTGSPQLNNR
Regarding B1, in test [21], the binding result is given as “binds”. As to KKKVLIIHIFIVFSFFLVFLIILFCNLVIKKK [TM5 peptide of human PAFR (residues 184-209) with KKK at both ends], in [22], the binding result was “binds”. KKKAINDAHQVTLCLLSTNCVLDPVIYCFLKKK [TM7 peptide of human PAFR (residues 270-296) with KKK at both ends]: the binding entry in [22] is reported as “binds”. For KKKTRKRGISLSLVIWVAIVGAASYFLILDKKK [TM4 peptide of human PAFR (residues 130-156) with KKK at both ends], the binding entry in [22] is recorded as “binds”. In the case of KKKYTLFPIVYSIIFVLGVIANGYVLWVFAKKK [TM1 peptide of human PAFR (residues 15-41) with KKK at both ends], the binding result in test [22] is recorded as “binds”.
